Here are results for 39 sequences from publication PMC7862700.

The list shows a part of the results. The source does not settle which construct or isoform was used.

The target of the assay is T1, ELF2 (UniProt Q15723).
T1 sequence: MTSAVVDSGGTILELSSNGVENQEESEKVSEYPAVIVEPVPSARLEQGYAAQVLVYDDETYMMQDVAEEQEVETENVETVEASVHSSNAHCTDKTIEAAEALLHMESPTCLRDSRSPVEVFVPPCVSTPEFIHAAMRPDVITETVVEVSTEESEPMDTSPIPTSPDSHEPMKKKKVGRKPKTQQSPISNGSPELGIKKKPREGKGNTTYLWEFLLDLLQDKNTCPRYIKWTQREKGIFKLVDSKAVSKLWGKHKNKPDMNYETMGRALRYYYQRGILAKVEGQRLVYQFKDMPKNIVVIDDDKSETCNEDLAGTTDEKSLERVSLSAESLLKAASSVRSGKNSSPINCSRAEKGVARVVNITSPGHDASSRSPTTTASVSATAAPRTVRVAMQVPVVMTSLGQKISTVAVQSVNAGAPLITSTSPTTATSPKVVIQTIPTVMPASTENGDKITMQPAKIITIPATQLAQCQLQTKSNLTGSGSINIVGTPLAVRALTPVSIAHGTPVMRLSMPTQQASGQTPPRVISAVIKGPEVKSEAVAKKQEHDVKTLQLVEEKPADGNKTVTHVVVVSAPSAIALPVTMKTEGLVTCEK
Kind of assay: DAPPL (digital affinity profiling via proximity ligation, sequencing). The settings on record: 10 mM Tris-HCl pH 7.5, 50 mM NaCl, 1 mM DTT, 4% glycerol, room temperature, 30 min; GST-TFs on glutathione beads, 16-mer random dsDNA library, 0.1% …; high values mean tight binding; double strand, one strand shown; scale: fold enrichment (6-mer frequency, TF over GST control).
ATTAAC displayed a binding signal of 1.24.
In turn, ACAGCA yielded a binding signal of 0.971.
Take ATCGCT: the binding signal was 1.01.
As for CGCTTA, the figure is 1.17; as for TAGCTG, 1.11; as for GTATCA, 1.05.
The value for CGACAG was 0.879; that for AATATG was 1.14; that for CGCGCA was 0.91.
As for TCAGAT, the figure is 1.01; as for GCACAA, 1.09.
In the case of CAGCCT, the binding signal amounted to 0.943.
The value for ACACCA was 0.942.
For the sequence AGTGTC, the binding signal was 1.02.
The value for CATATC was 1.39.
As for TATGCC, the figure is 1.14.
The value for AAACAG was 1.
In turn, TTCCCG displayed a binding signal of 2.27.
In the case of ACACGC, the binding signal was determined as 1.06.
As for GGTGTT, the figure is 1.05.
As for CAAGTT, the figure is 1.03; as for ATAGTG, 0.868.
As for TGGTCA, the figure is 0.957.
Turning to CTGGTG, the binding signal was found to be 0.94.
As for AGTGCA, the figure is 1.11; as for TTACCT, 1.22.
The value for CAGCTC was 0.932; that for CATGTT was 1.01.
As for ATCACA, the figure is 1.06; as for ACTTCG, 1.33; as for CGTAGC, 1.05.
As for ACGCCG, the binding signal is 1.03.
The value for GGCATA was 0.906; that for TTGTCA was 1.07; that for GTGTTG was 0.898.
As for GGTCTG, the figure is 0.949; as for TACGGA, 1.82; as for TGACGC, 1.12.
The value for CCGCCA was 1.3.
